Source: patent publication US5410024A (Arizona Board of Regents acting on behalf of Arizona State …, priority 1993, dated 1995)

Assay: general procedure: solution-phase peptide synthesis
Settings: coupling step

Q: Which step yield does the source give for “L-Dolavalyl-L-Valyl-N-Methyl-(S,S,R)-Dolaisoleucyl-(S,R,R)-Dolaproyl-L-Phenylalanineamide-N-(methenyl-2-pyridine)” here?
A: 96.8%

Q: For “L-Dolavalyl-L-Valyl-N-Methyl-(S,S,R)-Dolaisoleucyl-(S,R,R)-Dolaproyl-L-Phenylalanineamide-N-(methenyl-2-thiophene)”, which step yield is on record?
A: 95.9%

Q: With “L-Dolavalyl-L-Valyl-N-Methyl-(S,S,R)-Dolaisoleucyl-(S,R,R)-Dolaproyl-L-Phenylalanineamide-N-[2-(4-methylthiazole)]” as the substance, how does the step yield read?
A: 91.1%

Q: Which step yield does the source give for “L-Dolavalyl-L-Valyl-N-Methyl-(S,S,R)-Dolaisoleucyl-(S,R,R)-Dolaproyl-L-Phenylalanineamide-N-(1-adamantane)” here?
A: 89.6%

Q: For “L-Dolavalyl-L-Valyl-N-Methyl-(S,S,R)-Dolaisoleucyl-(S,R,R)-Dolaproyl-L-Phenylalanineamide-N-[2-(6-methoxybenzo-thiazole)]”, which step yield is on record?
A: 87.6%

Q: Which step yield does the source give for “L-Dolavalyl-L-Valyl-N-Methyl-(S,S,R)-Dolaisoleucyl-(S,R,R)-Dolaproyl-L-Phenylalanineamide-N-[2-(1,3,4-thiadiazole)]” here?
A: 95.4%

Q: For “L-Dolavalyl-L-Valyl-N-Methyl-(S,S,R)-Dolaisoleucyl-(S,R,R)-Dolaproyl-L-Phenylalanineamide-N-[2-(4-phenylthiazole)]”, which step yield is on record?
A: 90.3%

Q: Which step yield does the source give for “L-Dolavalyl-L-Valyl-N-Methyl-(S,S,R)-Dolaisoleucyl-(S,R,R)-Dolaproyl-L-Phenylalanineamide-N-(2-thiazole)” here?
A: 84.7%

Q: With “L-Dolavalyl-L-Valyl-N-Methyl-(S,S,R)-Dolaisoleucyl-(S,R,R)-Dolaproyl-L-Phenylalanineamide-N-(3-quinoline)” as the substance, how does the step yield read?
A: 82.9%

Q: Which step yield does the source give for “L-Dolavalyl-L-Valyl-N-Methyl-(S,S,R)-Dolaisoleucyl-(S,R,R)-Dolaproyl-L-Phenylalanineamide-N-(2-benzothiazole)” here?
A: 81.3%
